# Experimental data: PubChem BioAssay AID340 (DTP/NCI, 2004)
# The list does not hold the whole screen: it gathers some chemical classes. Other doses and runs of a compound may be missing. T/C gives the treated animals as a percentage of the vehicle group. Where survival is the endpoint, the PubChem record calls one and a half times the control and up active, and a quarter to a half above the control has no call in these data; cut-offs in other NCI protocols can differ. Some T/C values are marked as having no survivor count here; that says nothing about deaths at the dose. Schedules are NCI's codes, taken here to give the interval after Q, in days (D) or hours (H), and the number of doses after X. Signs of the kind (2×) count equal records among those shown. Some entries hold several experiments; the results are listed from low to high.
# Test system: CD2F1 mice, ip reticulum cell sarcoma, survival T/C
# Test: NCI In Vivo Anticancer Drug Screen. Data for tumor model Reticulum Cell Sarcoma (Kelley Mouse) (intraperitoneal) in CD2F1 (CDF1) mice
# Details: T/C endpoint: median survival time, schedule: Q01DX010 (ip), vehicle: saline, higher T/C = longer survival
# Method: The antitumor activity of compounds was measured in mice bearing transplantable tumors. Survival or tumor size were measured and the results are expressed as the measurement made in the treated group (T) divided by the measurement made in the vehicle treated control group (C). The tumor model used in this assay is Reticulum Cell Sarcoma (Kelley Mouse) (intraperitoneal) in CD2F1 (CDF1) mice
smiles,measurement,setting,value
CN(CCCl)CCCl,T/C,dose: 0.13 mg/kg/injection,91 [survivor count not shown] and 94 % of control [survivor count not shown]
same,T/C,dose: 0.25 mg/kg/injection,100 [survivor count not shown] and 102 % of control [survivor count not shown]
same,T/C,dose: 0.5 mg/kg/injection,108 % of control [survivor count not shown] (2×)
same,T/C,dose: 1.0 mg/kg/injection,100 [survivor count not shown] and 102 % of control [survivor count not shown]
